Experimental findings from publication PMC5437284 are described below.

Chains of the proteins cited; added tags and fusions are not shown. Lines headed by an entry give the natural chain unless they say otherwise; changes in a name come on top.
UniProt Q96524: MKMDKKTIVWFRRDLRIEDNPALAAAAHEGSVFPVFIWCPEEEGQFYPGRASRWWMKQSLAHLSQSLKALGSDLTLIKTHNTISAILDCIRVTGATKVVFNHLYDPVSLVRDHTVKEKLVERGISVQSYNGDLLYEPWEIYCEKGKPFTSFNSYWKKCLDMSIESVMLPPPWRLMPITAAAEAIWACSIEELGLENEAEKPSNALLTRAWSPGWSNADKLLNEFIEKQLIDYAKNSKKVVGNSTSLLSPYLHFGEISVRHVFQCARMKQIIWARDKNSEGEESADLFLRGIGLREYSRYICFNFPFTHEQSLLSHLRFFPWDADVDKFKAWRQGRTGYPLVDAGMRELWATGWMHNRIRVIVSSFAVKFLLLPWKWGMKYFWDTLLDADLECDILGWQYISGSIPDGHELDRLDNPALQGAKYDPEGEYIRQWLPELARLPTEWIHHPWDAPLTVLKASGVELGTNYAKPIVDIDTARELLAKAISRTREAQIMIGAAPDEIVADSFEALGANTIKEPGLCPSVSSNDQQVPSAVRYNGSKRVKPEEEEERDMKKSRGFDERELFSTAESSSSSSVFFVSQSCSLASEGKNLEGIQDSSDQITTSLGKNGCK
UniProt Q9FK52: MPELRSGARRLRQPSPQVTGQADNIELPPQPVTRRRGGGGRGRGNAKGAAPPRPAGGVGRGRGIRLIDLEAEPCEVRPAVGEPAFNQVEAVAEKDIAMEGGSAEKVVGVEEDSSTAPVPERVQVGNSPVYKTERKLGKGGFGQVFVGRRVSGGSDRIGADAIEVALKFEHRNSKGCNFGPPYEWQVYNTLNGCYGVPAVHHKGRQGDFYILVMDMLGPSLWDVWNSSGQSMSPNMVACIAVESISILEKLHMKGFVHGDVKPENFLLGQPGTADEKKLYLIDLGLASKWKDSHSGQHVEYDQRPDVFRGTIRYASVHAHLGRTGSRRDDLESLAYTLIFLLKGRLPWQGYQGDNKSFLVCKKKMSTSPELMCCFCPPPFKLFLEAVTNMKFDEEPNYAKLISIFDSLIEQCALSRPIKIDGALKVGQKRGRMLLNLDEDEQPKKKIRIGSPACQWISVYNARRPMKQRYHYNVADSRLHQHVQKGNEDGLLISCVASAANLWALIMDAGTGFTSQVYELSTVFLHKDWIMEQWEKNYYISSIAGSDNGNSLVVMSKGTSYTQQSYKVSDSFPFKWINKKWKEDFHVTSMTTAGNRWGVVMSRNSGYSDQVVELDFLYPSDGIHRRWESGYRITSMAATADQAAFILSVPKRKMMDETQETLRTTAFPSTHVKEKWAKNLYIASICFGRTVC
UniProt Q9LID3: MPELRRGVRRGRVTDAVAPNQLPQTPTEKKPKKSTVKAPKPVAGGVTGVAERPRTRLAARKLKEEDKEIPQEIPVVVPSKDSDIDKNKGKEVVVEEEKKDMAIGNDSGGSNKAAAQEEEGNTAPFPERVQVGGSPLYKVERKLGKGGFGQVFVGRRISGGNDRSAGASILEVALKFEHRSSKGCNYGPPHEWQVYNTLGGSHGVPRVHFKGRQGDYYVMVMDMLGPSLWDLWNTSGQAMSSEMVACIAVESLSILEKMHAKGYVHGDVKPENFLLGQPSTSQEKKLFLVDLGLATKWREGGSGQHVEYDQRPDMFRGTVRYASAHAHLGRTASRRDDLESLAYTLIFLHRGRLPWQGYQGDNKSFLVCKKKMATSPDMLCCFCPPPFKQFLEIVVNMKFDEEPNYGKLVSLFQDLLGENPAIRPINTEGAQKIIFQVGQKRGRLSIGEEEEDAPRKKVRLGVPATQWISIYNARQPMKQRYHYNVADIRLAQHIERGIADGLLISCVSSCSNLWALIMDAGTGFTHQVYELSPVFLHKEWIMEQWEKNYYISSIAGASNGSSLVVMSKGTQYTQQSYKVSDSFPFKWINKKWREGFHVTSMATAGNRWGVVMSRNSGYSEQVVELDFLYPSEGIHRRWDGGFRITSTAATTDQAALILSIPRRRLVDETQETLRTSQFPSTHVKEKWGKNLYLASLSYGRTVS
UniProt Q9SQR8: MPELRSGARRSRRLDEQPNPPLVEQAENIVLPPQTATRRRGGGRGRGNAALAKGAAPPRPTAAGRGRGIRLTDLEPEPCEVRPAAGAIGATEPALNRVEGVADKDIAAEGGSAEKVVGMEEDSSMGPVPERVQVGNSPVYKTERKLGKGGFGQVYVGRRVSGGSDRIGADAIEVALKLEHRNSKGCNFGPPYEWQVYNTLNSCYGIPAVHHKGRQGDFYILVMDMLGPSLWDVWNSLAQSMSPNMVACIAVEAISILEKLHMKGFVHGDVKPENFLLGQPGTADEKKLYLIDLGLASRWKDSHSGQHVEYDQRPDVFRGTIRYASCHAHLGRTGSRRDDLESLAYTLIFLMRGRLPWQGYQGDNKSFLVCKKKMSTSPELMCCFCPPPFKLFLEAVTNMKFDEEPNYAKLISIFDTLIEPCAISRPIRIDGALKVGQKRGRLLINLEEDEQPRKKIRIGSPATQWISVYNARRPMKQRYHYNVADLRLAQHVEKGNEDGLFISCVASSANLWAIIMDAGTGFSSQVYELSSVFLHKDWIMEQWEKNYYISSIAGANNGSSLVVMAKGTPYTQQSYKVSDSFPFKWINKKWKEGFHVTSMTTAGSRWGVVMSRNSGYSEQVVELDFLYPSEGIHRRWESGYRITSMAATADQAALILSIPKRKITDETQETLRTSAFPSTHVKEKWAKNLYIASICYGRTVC

The target of assay [1] is GFP-CRY2 fusion protein (Arabidopsis cryptochrome 2) (Arabidopsis) (UniProt Q96524). Kind of assay: affinity purification with mass spectrometry; GFP-CRY2 isolated by GFP-trap from 35S::GFP-CRY2 seedlings kept in the dark (dark control); IP buffer 50 mM Tris-HCl pH 7.5, 150 mM NaCl, 1% Triton X-100, 4 °C; label-free LC-MS/MS.
The target is the same in assay [2]. In words: affinity purification with mass spectrometry; GFP-CRY2 isolated by GFP-trap from 35S::GFP-CRY2 seedlings exposed to blue light for 60 min after one day of darkness; IP buffer 50 mM Tris-HCl pH 7.5, 150 mM NaCl, 1% Triton X-100, 4 °C; label-free LC-MS/MS.
For assay [3] the target is unchanged. Described as above. This is another data set of the same source.

Results are given in words; binding and its absence hold for the method and conditions named. Binding seen in cells or lysates may run through a third protein. These calls come from enrichment with a bait or labelling near it, and not all partners need be listed. For some of these results: No binding means not detected with the bait.

In the case of “Photoregulatory Protein Kinase 2 (PPK2), endogenous (from UniProt Q9FK52) (enzyme)”, the binding entry in assay [1] was “no binding (only plants kept in the dark)”; in assay [2], “binds”. As to “Photoregulatory Protein Kinase 1 (PPK1), endogenous (from UniProt Q9LID3) (enzyme)”, the binding result in assay [1] was “no binding (only plants kept in the dark)”; in assay [2], “binds”. For “Photoregulatory Protein Kinase 3 (PPK3), endogenous (from UniProt Q9SQR8) (enzyme)”, the binding result in assay [1] is given as “no binding (only plants kept in the dark)”; in assay [2], “binds”.

B1: suppressor of PhyA 1 (SPA1) (protein, UniProt Q9SYX2 1-1029)
chain: MPVMERVAEETVATNNIQLKARVDDVPCNKLDARHNDMVIQSETANSDCPGSSAHRNVDLTKPPPPEEAAGAKLSVEELTLGNYRIVQGSNNTNVDSPRAGKFEHLYRLARGSAFRAGDGDLDSQPRDMDQMLSRIRQQLAGAPSERQNLKPFMSRRSDQNLEAFSERLRAAGENSIMNAPALISEGVQMKTPVSSSNFSQLLLKRAMKGKGVVGKNQETPPEFVSDQDLGSKEKKLDISKSPTPHDVLPLKSSPKGNGMVSHGDGNHSKSSIGISLREFLRSSYAKREKRHGLCLFRQLVELVDSAHSKRLFLLDLRPSLFTLVPSKKLRYIGNFGKNDLESDVDEDLNRRRPVVEESSSGGRDSKKRKMDLHLNSPGNQLQATSTGRPFKRKSPVIDLNMVDARNPDSCELQQQDYIKNLSVSSVSRKQSMSTWLEEQWYTCPEEINGEDIGEKSNIYALGVLLFELLCHCESGEMHAAMMADLRHRILPPTFLSKYPKEAGFCLWLLHPEPSSRPSARDILKSELICEDDSVKSTAAAEEISELLLHFLSSLEVQKKKKASKLLQDIQTLEDDIKEAERRYSSNVSLVRSHGAIEKRVQSSPLDEHCTTSSALFVPTANTDRLMSNIRQLEDAYFFMRSQINLSSSAATARSDKTLKDRDRCSENQNENQDMSTKGKSSDQLEVFFEGLCKFARYSKFETCGTIRSGDLLNSASVVCSLSFDPDEEHIAAAGISKKIKIFDFNAFMNESVGVHYPLVEMVNKSKLSCVCWNSYIKNYLASTDYDGVVQIWDAGTGQGFSQYTEHQKRAWSVDFSPSDPTKFVSGSDDCSVKLWSINEKRSLGTIWSPANVCCVQFSSYSNHLLAFGSADYKVYCYDLRYVKTPWCTLAGHEKAVSYVKFMDSETIVSASTDNSLKLWNLNKTNSSGLSPGACSLTYKGHTNQKNFVGLSVLDGYIACGSETNEVYSYYKSLPMPMTSYKFGSVDPISGNEYFDDNGQFVSSVCWRKKSNMLVAANSTGNMKLLKLV
As to B1, the binding result in assay [3] is given as “binds”.
